Test results as given in PubChem BioAssay AID1347075 (National Center for Advancing Translational Sciences (NCATS), 2019).
Where “and” joins values, the source holds several entries; their conditions need not be identical. Equal values may be shown once. Out of some 400,000 compounds screened, about 5,500 (1.4%) were called active. This list was built around the results that the source calls inconclusive (neither active nor inactive); the mix of calls is not that of the screen. The call rests on the fitted dose curve; in most records, active means well fitted cell-killing curve with a large enough effect; inconclusive means small, poorly fitted or top-dose-only effect, or effect the other way; inactive means flat fitted curve, though single readings scatter. A potency beside an inconclusive call is a rough fit, not a confirmed value.

Experiment: qHTS assay for MDR1-selective chemotherapeutics: Primary screen using the parental adenocarcinoma cell KB-3-1; further: nearly all actives have a fitted effect of over 60% in size
Settings: KB-3-1 viability, CellTiter-Glo ATP luminescence, 72 h; activity change, negative = cytotoxic: at 46.1 µM (top of the series)
Text: A prime difficulty in effectively treating cancer is the development of cellular resistance to multiple structurally unrelated anticancer drugs, a phenomenon known as multidrug resistance (MDR). […] Numerous strategies to overcome P-gp-mediated MDR have been explored, including the design of drugs that evade recognition and efflux, and development of inhibitors to block efflux and restore drug accumulation. […] An alternative approach is to exploit resistance by identifying drugs that target MDR cells over the non-resistant parental cells from which they were selected. […] The development of MDR1-selective agents represents a new strategy for resolving multidrug resistance, as it remains a long-standing clinical challenge for cancer chemotherapy.
Our goal is to identify compounds that selectively kill P-gp-expressing MDR cells. We will identify MDR1-selective compounds by comparing toxicity of compounds in the screening library against parental, drug-naive (KB-3-1) adenocarcinoma cells as well as their drug-selected MDR sub-line (KB-V1). The differential toxicity of compounds against these two cell lines will be used to identify MDR1-selective compounds, whose cytotoxicity is potentiated, rather than diminished, by P-gp expression. This assay will be utilized to conduct a quantitative high-throughput screen (qHTS) in collaboration with the NIH Chemical Genomics Center to identify selective agents, and probe hits arising from the screen will be validated using secondary assays and characterized through a well-established follow-up research program. This screen was run against the entire NCGC library collection of about 400,000 compounds.
NIH Molecular Libraries Probe Production Network [MLPCN]
NIH Chemical Genomics Center [NCGC]
PI: Michael Gottesman PhD, National Cancer Institute, NIH
Briefly, 5 microL of media containing either KB-3-1 cells (columns 1-2, 4-48) are dispensed into Greiner white, treated solid-bottom 1536-well assay plates (media-only control is added to column 3). Compounds are then transferred via Kalypsys pin tool equipped with 1536-pin array (10 nL slotted pins, V&P Scientific, San Diego, CA). Following addition of compound, the plates are incubated at 37 degrees C for 72 hours. CellTiter-Glo (2.5 µL/well) is then added, and the plates are read in a ViewLux reader (Perkin-Elmer, clear luminescence filter, 1 second exposure, 1x binning) following a 10 minute incubation. All cells are dispensed in DMEM phenol-red free media containing 10% FBS.
Library plates were screened starting from the lowest and proceeding to the highest concentration. Vehicle-only plates, with DMSO being pin-transferred to columns 5-48, will be inserted uniformly at the beginning and the end of each library in order to monitor and record any shifts in the background, which can be affected by reagent dispensers or loss in enzyme activity over time. Screening data will be corrected, normalized, and concentration-effect relationships will be derived by using publicly-available NCGC, NCATS curve fitting algorithms (http://ncgc.nih.gov/pub/openhts).
On the % scale 0 is the no-effect control and ±100 the full control effect; potency means the concentration at half of the fitted maximal effect.

| SMILES | Potency | activity change, negative = cytotoxic |
| --- | --- | --- |
| O=C1NC(=O)N(Cc2ccco2)C(=O)/C1=C/C=C/c1ccco1 | inconclusive: 16.4 µM [cytotoxic, single point] | – |
| CC/C=C/CC(=O)N[C@@H](c1ccccc1)[C@@H](O)C(=O)O[C@H]1C[C@@]2(O)[C@@H](OC(=O)c3ccccc3)C3[C@](C)(C(=O)[C@H](OC(C)=O)C(=C1C)C2(C)C)[C@@H](O)C[C@H]1OC[C@@]31OC(C)=O (stereo partly drawn) | active: 0.58 µM | – |
| C[C@]12CCC3C(CC[C@H]4C[C@@H](O)CC[C@]34C)C1=CC[C@@H]2O (stereo partly drawn) | – | inactive: -0.942% |
| COC(=O)C1=C(c2ccc(OC)c(OC)c2)C[C@@H]2CC[C@H]1N2C(=O)N1CCOCC1 | – | inactive: -1.88% |
| C[C@]12CC[C@@H]3c4ccc(O)c(O)c4CC[C@H]3[C@@H]1CC[C@@H]2O | inconclusive: 29.1 µM [cytotoxic, single point] | – |
| NCC(=O)c1ccccc1 | – | inconclusive: 59.9% |
| C[C@]12CCC3C(CC[C@H]4C[C@@H](O)CC[C@]34C)C1C[C@@H](Br)[C@@H]2O (stereo partly drawn) | inconclusive: 29.1 µM [rising, single point] | – |
| COC(=O)C1=C(c2ccc(Cl)c(C(F)(F)F)c2)C[C@@H]2CC[C@H]1N2C(=O)N1CCCC1 | inconclusive: 14.6 µM [cytotoxic, partial curve, poor fit] | – |
| COC(=O)C1=C(c2ccc(F)cc2OCc2ccccc2)C[C@@H]2CC[C@H]1N2C(=O)NCc1cccc(C(F)(F)F)c1 | inconclusive: 16.4 µM [cytotoxic, single point] | – |
| N#Cc1ncc(N=Cc2ccc(N(CCCl)CCCl)cc2)s1 | inconclusive: 0.731 µM [cytotoxic, full curve] | – |
| CCN(CCCl)c1cc(CN(C)C)cc(NC(=O)c2ccc(C(=O)Nc3cc(CN(C)C)cc(N(CC)CCCl)c3)cc2)c1 | active: 0.517 µM | – |
| Cc1ccc(-n2c(/C=C/c3ccc(Br)s3)nc3ccccc3c2=O)cc1 | inconclusive: 14.6 µM [cytotoxic, partial curve] | – |
| CC(N)C(=O)OC(C)(C)Cc1ccc(Cl)cc1 (stereo not drawn) | – | inactive: -0.0075% |
| COc1ccc(Cl)cc1NC(=O)CN1C(=O)CN=C(c2ccccc2)c2cc(Cl)ccc21 | inconclusive: 29.1 µM [cytotoxic, single point] | – |
| CC[n+]1c(-c2ccccc2)c2cc(N)ccc2c2ccc(N)cc21 | inconclusive: 517 nM [cytotoxic, full curve, poor fit] and inconclusive: 2.06 µM [cytotoxic, partial curve, poor fit] | – |
| CCOP(=O)(OCC)C(NC(=O)c1ccccc1)=C(Cl)Cl | – | inactive: -0.871% |
| O=c1c2ccccc2nc(/C=C/c2cccc3ccccc23)n1-c1ccccc1Cl | inconclusive: 11.6 µM [cytotoxic, partial curve] | – |
| COC(=O)C1=C(c2ccc(-c3ccccc3)c(F)c2)C[C@@H]2CC[C@H]1N2C(=O)NCC1CC1 | inconclusive: 29.1 µM [cytotoxic, single point] | – |
| Cc1cccn2c(=O)c3c(nc12)N1CCCCCC1C1(C3)C(=O)N(C)C(=O)N(C)C1=O (stereo not drawn) | – | inactive: 3.07% |
| CSc1ccc(C(=O)C2CCCN(Cc3cc4ccccc4[nH]3)C2)cc1 (stereo not drawn) | – | inactive: -4.11% |
| CC12CC[C@H]3[C@@H](CCC4(O)C[C@H](O)CCC34/C=N/NC(=O)c3ccccc3F)C1(O)CCC2C1=CC(=O)OC1 (stereo partly drawn) | active: 18.4 µM | – |

An excerpt of these results, tab-delimited.
SMILES	Potency	activity change, negative = cytotoxic
O=C1NC(=O)N(Cc2ccco2)C(=O)/C1=C/C=C/c1ccco1	inconclusive: 16.4 µM [cytotoxic, single point]	–
COC(=O)C1=C(c2ccc(Cl)c(C(F)(F)F)c2)C[C@@H]2CC[C@H]1N2C(=O)N1CCCC1	inconclusive: 14.6 µM [cytotoxic, partial curve, poor fit]	–
CCN(CCCl)c1cc(CN(C)C)cc(NC(=O)c2ccc(C(=O)Nc3cc(CN(C)C)cc(N(CC)CCCl)c3)cc2)c1	active: 0.517 µM	–
CC(N)C(=O)OC(C)(C)Cc1ccc(Cl)cc1 (stereo not drawn)	–	inactive: -0.0075%

Further results follow:

| SMILES | Potency | activity change, negative = cytotoxic |
| --- | --- | --- |
| O=c1c2ccccc2nc(/C=C/c2ccc(O)cc2)n1-c1ccccc1O | active: 20.6 µM | – |
| CCOC(=O)[C@]12Cc3cc(N(C)C)ccc3[C@H]1N(Cc1ccccc1)C(=O)c1ccccc12 | inconclusive: 29.1 µM [cytotoxic, single point] | – |
| Cc1nc2cc(C(F)(F)F)ccc2n1C1CCN(Cc2nnnn2CCc2ccccc2)CC1 | inconclusive: 25.9 µM [cytotoxic, single point] | – |
| CC(=O)CCC(C)=O | inconclusive: 58 µM [cytotoxic, full curve, poor fit] | – |
| CCOC(=O)[C@]12Cc3c(cc(OC)c(OC)c3OC)[C@H]1N(C)C(=O)c1cc(OC)ccc12 | active: 2.91 µM | – |
| NS(=O)(=O)c1ccc(-c2ccc(C=C3C(=O)NC(=O)NC3=O)o2)cc1 | – | inactive: -3.13% |
| CSCc1nnc2n1-c1ccc(Cl)cc1C(c1ccccc1)=NC2 | inconclusive: 32.6 µM [cytotoxic, single point] | – |
| COc1ccc(CN2CCCC(C(=O)c3ccc(Cl)cc3)C2)c(OC)c1 (stereo not drawn) | inconclusive: 16.4 µM [cytotoxic, single point] | – |
| CN1C(=O)/C(=C/c2cccn2-c2ccc3ccccc3c2)C(=O)NC1=S | inconclusive: 29.1 µM [cytotoxic, single point] | – |
| O=c1[nH]c2ccccc2n1C1CCN(C(c2cc3ccccc3o2)c2nnnn2-c2ccc3c(c2)OCCO3)CC1 (stereo not drawn) | inconclusive: 29.1 µM [cytotoxic, single point] | – |
| Cc1[nH]nc2ccc(-c3cncc(OC[C@@H](N)Cc4c[nH]c5ccccc45)c3)cc12 | inconclusive: 0.461 µM [cytotoxic, full curve, poor fit] | – |
| CC(=O)OC1CC2(O)C3CCC4CC(O)CCC4(C)C3CCC2(C)C1C1=CC(=O)OC1 (stereo not drawn) | active: 0.184 µM | – |
| Cc1ccc(OCCOc2cccc(C=C3C(=O)NC(=O)NC3=O)c2)cc1 | – | inactive: 0.534% |
| CCc1ccc(NC(=O)c2cccn(Cc3cccc([N+](=O)[O-])c3)c2=O)cc1 | inconclusive: 29.1 µM [cytotoxic, single point] | – |
| CCCCc1ccc(NC(=O)c2cccn(Cc3ccc(Cl)cc3)c2=O)cc1 | – | inconclusive: -56.1% [cytotoxic] |
| Cc1cccc(OCCn2cccc2/C=C2/C(=O)NC(=O)N(Cc3ccco3)C2=O)c1 | – | inactive: 15% |
| Clc1ccc2sc(C3CCNCC3)nc2c1 | – | inactive: 0.672% |
| COc1cc(/C=C/C(=O)c2c(O)n(CCc3ccccc3)c(=O)[nH]c2=O)ccc1O | – | inactive: 0% |
| CCCCn1c(=O)c(C(=O)Nc2cnccn2)c(O)c2ccccc21 | active: 7.31 µM | – |
| CCOC(=O)c1cnc(SCc2ccc(Cl)c(Cl)c2)nc1N1CC1 | – | inactive: 0% |
| CCc1ccc2nc(N3CCC(C(=O)N4CCC5(CC4)OCCO5)CC3)sc2c1 | inconclusive: 32.6 µM [cytotoxic, single point] | – |

| SMILES | Potency | activity change, negative = cytotoxic |
| --- | --- | --- |
| Nc1c(C(=O)OCC2CCCO2)c2nc3ccccc3nc2n1Cc1cccs1 (stereo not drawn) | inconclusive: 16.4 µM [cytotoxic, single point] | – |
| CC12Cc3cnoc3C=C1CCC1C2CCC2(C)C1CCC2(C)O (stereo not drawn) | active: 6.51 µM | – |
| CCOc1cc2c(cc1OCC)-n1cccc1C(c1c(O)cccc1OC)NC2 (stereo not drawn) | inconclusive: 20.6 µM [cytotoxic, single point] | – |
| CCOC(=O)[C@]12Cc3ccc(C)cc3[C@H]1N(C1CCCCC1)C(=O)c1cc(OC)ccc12 | inconclusive: 4.61 µM [cytotoxic, full curve, poor fit] | – |
| O=C(CNC(=O)OCc1ccccc1)Nc1ccc(Br)cc1C(=O)c1ccccc1Cl | inconclusive: 29.1 µM [cytotoxic, single point] | – |
| COc1cccc(C(=O)C2CCCN(Cc3ccon3)C2)c1 (stereo not drawn) | inconclusive: 2.31 µM [rising, partial curve, poor fit] | – |
| Nc1ccc(N2CCN(Cc3ccccc3Cl)CC2)c(Cl)c1 | inconclusive: 20.6 µM [cytotoxic, single point] | – |
| Cc1[nH]c2ccc(OC(F)(F)F)cc2c1CCNCc1ccc(Cl)cc1 | inconclusive: 29.1 µM [cytotoxic, single point] | – |
| COc1ccc(C(=O)Nc2ccc(Cl)cc2C(=O)c2ccccc2)c(OC)c1 | inconclusive: 23.1 µM [cytotoxic, single point] | – |
| O=C1NC(=O)C(=Cc2ccc(-c3ccc(F)cc3O)o2)C(=O)N1 | – | inactive: -3.61% |
| CCN(CC)c1ccc(N=Cc2c(O)n(CCc3ccc(OC)c(OC)c3)c(=O)[nH]c2=O)cc1 | inconclusive: 29.1 µM [cytotoxic, single point] | – |
| CCN(CC)C1=NC(=[N+](CC)CC)c2ccccc21 | active: 10.3 µM | – |
| COC(=O)C1=C(c2cccc(OCc3ccccc3)c2)C[C@@H]2CC[C@H]1N2C(=O)NC1CCN(Cc2ccccc2)CC1 | inconclusive: 18.4 µM [cytotoxic, single point] | – |
| C[C@H]1O[C@@H](OC2CC[C@]3(C=O)[C@H]4CC[C@]5(C)[C@@H](C6=CC(=O)OC6)CC[C@]5(O)[C@@H]4CC[C@]3(O)C2)CC2OC(C)(C)OC21 (stereo partly drawn) | inconclusive: 0.291 µM [cytotoxic, full curve, poor fit] | – |
| COCc1cc(OC(=O)N(C)C)nc(-c2ccc(C)c(Cl)c2)n1 | inconclusive: 0.731 µM [rising, full curve, poor fit] | – |
| CC(=O)NC1CC2CCCC(C1)N2 (stereo not drawn) | inconclusive: 7.31 µM [rising, partial curve, poor fit] | – |
| CC12CN3C(O)C(C)(C1)CC(C)(C2)C3O (stereo not drawn) | – | inactive: -26.1% |
| COC(=O)C1=C(c2ccc(OC)c(OC)c2)C[C@@H]2CC[C@H]1N2C(=O)N1CCc2cc(OC)c(OC)cc2C1 | inconclusive: 16.4 µM [cytotoxic, single point] | – |
| C=CCn1c(O)c(C(C)=NCc2cc(OC)cc(OC)c2)c(=O)[nH]c1=O | active: 5.17 µM | – |
| CCOc1ccc(-n2c(-c3cccs3)nc3ccccc3c2=O)cc1 | – | inactive: 3.06% |
| C=C(CO)CC1CC(O)[C@]2(C)OC3CC4OC5C[C@]6(C)O[C@]7(C)CCC8OC9C[C@]%10(C)OC%11C(C)=CC(=O)OC%11CC%10OC9C[C@@H](C)C8OC7CC6O[C@]5(C)C/C=C\C4OC3CC2O1 (stereo partly drawn) | inconclusive: 25.9 µM [cytotoxic, partial curve, poor fit] | – |
